The list is a part of this screen's results and no random one: it is rich in T/C values a quarter to a half above the control, in often repeated tests (any T/C) and in doses without a T/C. Further doses and runs are listed elsewhere. T/C: endpoint of the treated group in % of that of the vehicle group. Some entries give survivors of the animals treated and no T/C: the source holds a T/C of zero for them, seemingly a mark for toxic or unscored doses. Some doses without a T/C left all or most animals alive at the check, yet need not have been tolerated: survival well below the control is almost never listed, so the zero probably covers shortened survival too. Counts of survivors are from the toxicity check (mostly the fifth day) where no day follows; animals may have died later. Schedule codes are those of the source, read here as Q, the interval in days (D) or hours (H), X, the number of doses. Some schedule codes hold Z or #, which are not explained here. Where survival is the endpoint, the PubChem record calls one and a half times the control and up active, and a quarter to a half above the control has no call in these data; cut-offs in other NCI protocols can differ. Some T/C values are followed by the survivors on the day toxicity was checked, most often the fifth; where none is given, no animal had died by that day. Some entries were tested several times; the results are listed from low to high. Marks such as (2×) count equal records among those shown.

In this assay the test system is B6C3F1 mice, intracerebral ependymoblastoma, median survival T/C. Put plainly: NCI In Vivo Anticancer Drug Screen. Data for tumor model Ependymoblastoma (intracerebral) in B6C3F1 mice. The settings on record: T/C endpoint: median survival time, higher T/C = longer survival. The procedure:
The antitumor activity of compounds was measured in mice bearing transplantable tumors. Survival or tumor size were measured and the results are expressed as the measurement made in the treated group (T) divided by the measurement made in the vehicle treated control group (C). The tumor model used in this assay is Ependymoblastoma (intracerebral) in B6C3F1 mice

Where [1] appears, read: dose: 32.0 mg/kg/injection, schedule: Q01DX005 (ip), vehicle: saline.
Where [2] appears, read: dose: 8.0 mg/kg/injection, schedule: Q01DX005 (ip), vehicle: saline.
The mark [3] stands for this setting: dose: 192.0 mg/kg/injection, schedule: Q01DX001 (ip), vehicle: Klucel (hydroxypropylcellulose) (HPC).
The mark [4] stands for this setting: dose: 40.0 mg/kg/injection, schedule: Q01DX005 (ip), vehicle: Klucel (hydroxypropylcellulose) (HPC).

Turning to `O=C(NP(=O)(N1CC1)N1CC1)c1cc(I)ccc1I`, the T/C by setting is: under setting [1], 133 % of control; (dose: 64.0 mg/kg/injection, schedule: Q01DX005 (ip), vehicle: saline) 128 and 142 % of control; (dose: 64.0 mg/kg/injection, schedule: Q#A X010 (oral), vehicle: suspension in saline) 144 % of control; (dose: 128.0 mg/kg/injection, schedule: Q#A X010 (oral), vehicle: suspension in saline) 148 % of control; (dose: 256.0 mg/kg/injection, schedule: Q#A X010 (oral), vehicle: suspension in saline) 143 % of control; (dose: 512.0 mg/kg/injection, schedule: Q01DX001 (oral), vehicle: suspension in saline) 133 % of control. Besides, the T/C (dose: 1024.0 mg/kg/injection, schedule: Q01DX001 (oral), vehicle: suspension in saline) was 132 % of control. For the same compound, the survivor count runs as follows: (dose: 128.0 mg/kg/injection, schedule: Q01DX005 (ip), vehicle: saline) 10 of 10; (dose: 128.0 mg/kg/injection, schedule: Q#A X006 (ip), vehicle: suspension in saline) 10 of 10; (dose: 256.0 mg/kg/injection, schedule: Q01DX001 (ip), vehicle: suspension in saline) 6 of 10; (dose: 256.0 mg/kg/injection, schedule: Q01DX005 (ip), vehicle: saline) 10 of 10; (dose: 256.0 mg/kg/injection, schedule: Q#A X004 (ip), vehicle: suspension in saline) 3 of 10; (dose: 256.0 mg/kg/injection, schedule: Q#A X006 (ip), vehicle: suspension in saline) 6 of 10. Moreover, the survivor count by setting is: (dose: 512.0 mg/kg/injection, schedule: Q#A X004 (ip), vehicle: suspension in saline) 2 of 10; (dose: 512.0 mg/kg/injection, schedule: Q#A X010 (oral), vehicle: suspension in saline) 9 of 10; (dose: 1024.0 mg/kg/injection, schedule: Q01DX001 (ip), vehicle: suspension in saline) 4 of 10; (dose: 1024.0 mg/kg/injection, schedule: Q#A X010 (oral), vehicle: suspension in saline) 8 of 10.
On to `N[C@@H](Cc1ccc(N(CCCl)CCCl)cc1)C(=O)O`, for which the T/C under setting [2] is 139 % of control. The survivor count is, setting by setting: under setting [2], 9 of 10; (dose: 16.0 mg/kg/injection, schedule: Q01DX005 (ip), vehicle: saline) 9 of 10; under setting [1], 7 of 10.
Turning to `NC(=O)N(CCCl)N=O`, for the setting “dose: 2.0 mg/kg/injection, schedule: Q01DX001 (ip), vehicle: saline + alcohol”, the T/C was 143 % of control. In addition, the survivor count (dose: 8.0 mg/kg/injection, schedule: Q01DX001 (ip), vehicle: saline + alcohol) is 7 of 10 and the survivor count (dose: 16.0 mg/kg/injection, schedule: Q01DX001 (ip), vehicle: saline + alcohol) is recorded as 5 of 10.
Take `C1CN1c1nc(N2CC2)nc(N2CC2)n1`: the T/C (dose: 0.5 mg/kg/injection, schedule: Q01DX005 (ip), vehicle: saline, evaluated on day 45) is 135 % of control and the T/C (dose: 0.5 mg/kg/injection, schedule: Q01DX005 (ip), vehicle: saline, evaluated on day 60) was 125 % of control. Moreover, the survivor count (dose: 2.0 mg/kg/injection, schedule: Q01DX005 (ip), vehicle: saline) is listed as 9 of 10.
Turning to `COC1OC(CO)C(O)C(NC(=O)N(C)N=O)C1O` (stereo unspecified), the T/C was 125 % of control (dose: 2.0 mg/kg/injection, schedule: Q## X006 (ip), vehicle: saline + alcohol); 127 % of control (dose: 8.0 mg/kg/injection, schedule: Q01DX005 (ip), vehicle: saline + alcohol); 127 % of control (dose: 16.0 mg/kg/injection, schedule: Q## X004 (ip), vehicle: saline + alcohol); 130 % of control (dose: 16.0 mg/kg/injection, schedule: Q## X006 (ip), vehicle: saline + alcohol); 136 % of control (dose: 64.0 mg/kg/injection, schedule: Q01DX005 (oral), vehicle: saline + alcohol); 129 % of control (dose: 256.0 mg/kg/injection, schedule: Q01DX001 (oral), vehicle: saline + alcohol).
For the compound `COS(C)(=O)=O`, the T/C by setting is: under setting [2], 126 % of control; (dose: 32.0 mg/kg/injection, schedule: Q01DX001 (ip), vehicle: saline) 97 [survivors not given], 104 [survivors not given], 105 [survivors not given], 109 % of control; (dose: 64.0 mg/kg/injection, schedule: Q01DX001 (ip), vehicle: saline) 95 [survivors not given], 99 [survivors not given], 106, 109 % of control [survivors not given]; (dose: 128.0 mg/kg/injection, schedule: Q01DX001 (ip), vehicle: saline) 103 [survivors not given], 104 [survivors not given], 111, 112 % of control [survivors not given]; (dose: 256.0 mg/kg/injection, schedule: Q01DX001 (ip), vehicle: saline) 114 [survivors not given], 117 [survivors not given], 137 % of control [6 of 10 alive].
In the case of `O=P1(N(CCCl)CCCl)NCCCO1` (stereo unspecified), the T/C (dose: 80.0 mg/kg/injection, schedule: Q01DX001 (ip), vehicle: saline) was 129 % of control and the T/C (dose: 160.0 mg/kg/injection, schedule: Q01DX001 (ip), vehicle: saline) is 126 % of control. Further, the survivor count (dose: 640.0 mg/kg/injection, schedule: Q01DX001 (ip), vehicle: saline) was 3 of 10.
As to `COc1ccc2c(c1)CCC(c1ccccc1)=C2c1ccc(OCCN2CCCC2)cc1`, the T/C is, setting by setting: (dose: 24.0 mg/kg/injection, schedule: Q01DX001 (ip), vehicle: Klucel (hydroxypropylcellulose) (HPC)) 95 [survivors not given], 99 [survivors not given], 100 [survivors not given], 107 % of control [9 of 10 alive]; (dose: 48.0 mg/kg/injection, schedule: Q01DX001 (ip), vehicle: Klucel (hydroxypropylcellulose) (HPC)) 98 [survivors not given] (2×), 108, 108 % of control [survivors not given]; (dose: 96.0 mg/kg/injection, schedule: Q01DX001 (ip), vehicle: Klucel (hydroxypropylcellulose) (HPC)) 93, 97 [survivors not given], 106 [survivors not given], 112 % of control [survivors not given]; under setting [3], 97 [survivors not given], 99 [survivors not given], 107 % of control [survivors not given]. For the same compound, the survivor count is listed as 0 of 10 (dose: 128.0 mg/kg/injection, schedule: Q01DX005 (ip), vehicle: Klucel (hydroxypropylcellulose) (HPC)) and 2 of 10 under setting [3].
Turning to `O=C1C(=O)c2ccccc2C(O)=C1CC=C(Cl)Cl`, the T/C runs as follows: (dose: 20.0 mg/kg/injection, schedule: Q01DX001 (ip), vehicle: Klucel (hydroxypropylcellulose) (HPC)) 93 [survivors not given], 97 [survivors not given], 106 [survivors not given], 114 % of control; (dose: 40.0 mg/kg/injection, schedule: Q01DX001 (ip), vehicle: Klucel (hydroxypropylcellulose) (HPC)) 87 [survivors not given], 88, 98 [survivors not given], 101 % of control [survivors not given]; (dose: 80.0 mg/kg/injection, schedule: Q01DX001 (ip), vehicle: Klucel (hydroxypropylcellulose) (HPC)) 96 [survivors not given], 97 [survivors not given], 103, 109 % of control [survivors not given]; (dose: 160.0 mg/kg/injection, schedule: Q01DX001 (ip), vehicle: Klucel (hydroxypropylcellulose) (HPC)) 90 [survivors not given], 95 [survivors not given], 97 [8 of 10 alive on day 9], 105 % of control [survivors not given].
In the case of `O=NN(CCF)C(=O)NCCO`, the survivor count under setting [4] is listed as 9 of 10 on day 6 and the survivor count (dose: 100.0 mg/kg/injection, schedule: Q01DX001 (ip), vehicle: saline) is 8 of 10 on day 6.
In the case of `CC(=O)O[C@H]1C(=O)[C@@]2(C)[C@H]([C@H](OC(=O)c3ccccc3)[C@]3(O)C[C@H](OC(=O)[C@H](O)[C@@H](NC(=O)c4ccccc4)c4ccccc4)C(C)=C1C3(C)C)[C@]1(OC(C)=O)CO[C@@H]1C[C@@H]2O`, the survivor count reads like this: (dose: 20.0 mg/kg/injection, schedule: Q01DX005 (ip), vehicle: Klucel (hydroxypropylcellulose) (HPC)) 8 of 9; under setting [4], 8 of 10; (dose: 80.0 mg/kg/injection, schedule: Q01DX005 (ip), vehicle: Klucel (hydroxypropylcellulose) (HPC)) 10 of 10.

Source of the values: PubChem BioAssay AID226 (DTP/NCI, 2004).
